This assay concerns the target hIL-1RI protein (human) (UniProt P14778). Put plainly: SPR (Biacore), CM5 chip, fusion protein immobilised by amine coupling, receptor injected as analyte (labelled IL1R1-Fc on the sheet).

Sequences of proteins named here, by UniProt entry; tags and fusion partners are left off. Residues count along the entry.
UniProt P14778, residues 18-332: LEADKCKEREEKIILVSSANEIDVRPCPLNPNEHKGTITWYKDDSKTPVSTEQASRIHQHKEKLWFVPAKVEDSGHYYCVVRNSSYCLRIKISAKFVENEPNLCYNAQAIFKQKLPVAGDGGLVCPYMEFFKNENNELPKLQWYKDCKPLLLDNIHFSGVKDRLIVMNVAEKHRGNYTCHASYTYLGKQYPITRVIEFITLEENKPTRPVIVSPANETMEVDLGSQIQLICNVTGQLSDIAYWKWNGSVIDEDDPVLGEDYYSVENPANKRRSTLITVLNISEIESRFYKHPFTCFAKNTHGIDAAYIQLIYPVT
UniProt P18510, residues 26-177: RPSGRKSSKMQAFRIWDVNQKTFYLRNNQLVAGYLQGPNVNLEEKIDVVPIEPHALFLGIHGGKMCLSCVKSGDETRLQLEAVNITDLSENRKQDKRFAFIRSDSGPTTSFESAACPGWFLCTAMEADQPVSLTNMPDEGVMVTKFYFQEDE

Our source for the binding values is patent US20130217864A1.

Results are given in words; binding and its absence hold for the method and conditions named. Some binding calls cover weakened binding; strength is not graded here.

As to “hIL-1RA fused with Fc from IgG1 (from UniProt P18510 26-177) (Fc fusion)”, the binding result was “binds”.
